Laboratory results taken from US20160311880A1.
These are yes or no findings as the source states them, for the method shown. Some results given as binding are weak or reduced against the parent protein; the word gives no strength.

Sequences of proteins named here, by UniProt entry; tags and fusion partners are left off.
UniProt P61073: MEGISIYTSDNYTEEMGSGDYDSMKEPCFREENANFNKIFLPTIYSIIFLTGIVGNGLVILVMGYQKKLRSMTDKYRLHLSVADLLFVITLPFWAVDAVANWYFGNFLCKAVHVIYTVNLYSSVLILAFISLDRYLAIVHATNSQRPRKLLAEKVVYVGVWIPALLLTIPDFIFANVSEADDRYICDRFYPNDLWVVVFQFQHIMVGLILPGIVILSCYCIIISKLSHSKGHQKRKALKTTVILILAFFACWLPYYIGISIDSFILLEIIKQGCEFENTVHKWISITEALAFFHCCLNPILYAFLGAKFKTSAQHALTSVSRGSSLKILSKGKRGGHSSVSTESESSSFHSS

Tests used:
[1] = molecular target: T1, zebrafish aplnra (zebrafish) (UniProt Q7SZP9); assay: AP-ELA cell-surface binding to transfected HEK293T cells
T1 sequence (looked up): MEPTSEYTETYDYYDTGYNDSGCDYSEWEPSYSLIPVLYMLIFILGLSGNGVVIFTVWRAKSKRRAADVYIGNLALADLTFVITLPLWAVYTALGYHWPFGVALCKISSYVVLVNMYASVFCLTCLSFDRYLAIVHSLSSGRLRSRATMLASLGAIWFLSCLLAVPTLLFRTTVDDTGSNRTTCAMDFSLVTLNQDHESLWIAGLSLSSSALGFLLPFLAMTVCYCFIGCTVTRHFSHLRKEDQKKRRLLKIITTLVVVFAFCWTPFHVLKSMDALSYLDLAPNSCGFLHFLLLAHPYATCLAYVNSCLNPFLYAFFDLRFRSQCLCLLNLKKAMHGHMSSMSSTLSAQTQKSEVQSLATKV

CXCR4 [2] = molecular target: CXCR4 (UniProt P61073); assay: ELA-AP conditioned medium on 293T cells transfected with receptor ORFs (FIG. 20A)
[3] = molecular target: T1, zebrafish aplnra (zebrafish); assay: AP-ELA cell-surface binding to transfected 293T cells (FIG. 7G)
CXCR4 [4] = molecular target: CXCR4 (UniProt P61073); assay: ELA-AP conditioned medium on 293T cells transfected with receptor ORFs, OD at 495 nm

binding [1]: binds
binding (CXCR4 [2]): binds
binding [3]: binds
binding (CXCR4 [4]): binds
B1: recombinant ELA conjugated to Alkaline-Phosphatase (AP-ELA) (peptide, not shown: large carriers)
chain: QRPVNLTMRRKLRKHNCLQRRCMPLHSRVPFP
